In the supplement of paper PMC11732987, “Enantioselective OTUD7B fragment discovery through chemoproteomics screening and high-throughput optimisation” (Communications Chemistry, 2025):
The list shows a part of the results. The data scatter; read single values as rough.

Protein sequences, listed by entry. Tags and fused reporters are not part of them. Lines headed by an entry give the natural chain unless they say otherwise; changes in a name come on top. Residues count along the entry.
UniProt P50991, 97-122: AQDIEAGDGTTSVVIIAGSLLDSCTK
UniProt Q96JB5: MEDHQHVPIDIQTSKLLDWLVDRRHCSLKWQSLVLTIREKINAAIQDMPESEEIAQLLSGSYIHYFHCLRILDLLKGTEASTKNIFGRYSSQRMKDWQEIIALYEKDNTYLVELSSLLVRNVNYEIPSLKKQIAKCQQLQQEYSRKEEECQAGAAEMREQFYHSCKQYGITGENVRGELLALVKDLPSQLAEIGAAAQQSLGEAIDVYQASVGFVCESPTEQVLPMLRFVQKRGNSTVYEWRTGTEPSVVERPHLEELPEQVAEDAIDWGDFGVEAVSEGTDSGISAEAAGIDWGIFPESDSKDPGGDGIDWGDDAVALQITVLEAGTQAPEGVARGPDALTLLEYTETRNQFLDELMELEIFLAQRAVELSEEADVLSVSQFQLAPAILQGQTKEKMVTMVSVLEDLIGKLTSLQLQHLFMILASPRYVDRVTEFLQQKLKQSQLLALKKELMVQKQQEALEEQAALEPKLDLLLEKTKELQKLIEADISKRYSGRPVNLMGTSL
UniProt Q12873: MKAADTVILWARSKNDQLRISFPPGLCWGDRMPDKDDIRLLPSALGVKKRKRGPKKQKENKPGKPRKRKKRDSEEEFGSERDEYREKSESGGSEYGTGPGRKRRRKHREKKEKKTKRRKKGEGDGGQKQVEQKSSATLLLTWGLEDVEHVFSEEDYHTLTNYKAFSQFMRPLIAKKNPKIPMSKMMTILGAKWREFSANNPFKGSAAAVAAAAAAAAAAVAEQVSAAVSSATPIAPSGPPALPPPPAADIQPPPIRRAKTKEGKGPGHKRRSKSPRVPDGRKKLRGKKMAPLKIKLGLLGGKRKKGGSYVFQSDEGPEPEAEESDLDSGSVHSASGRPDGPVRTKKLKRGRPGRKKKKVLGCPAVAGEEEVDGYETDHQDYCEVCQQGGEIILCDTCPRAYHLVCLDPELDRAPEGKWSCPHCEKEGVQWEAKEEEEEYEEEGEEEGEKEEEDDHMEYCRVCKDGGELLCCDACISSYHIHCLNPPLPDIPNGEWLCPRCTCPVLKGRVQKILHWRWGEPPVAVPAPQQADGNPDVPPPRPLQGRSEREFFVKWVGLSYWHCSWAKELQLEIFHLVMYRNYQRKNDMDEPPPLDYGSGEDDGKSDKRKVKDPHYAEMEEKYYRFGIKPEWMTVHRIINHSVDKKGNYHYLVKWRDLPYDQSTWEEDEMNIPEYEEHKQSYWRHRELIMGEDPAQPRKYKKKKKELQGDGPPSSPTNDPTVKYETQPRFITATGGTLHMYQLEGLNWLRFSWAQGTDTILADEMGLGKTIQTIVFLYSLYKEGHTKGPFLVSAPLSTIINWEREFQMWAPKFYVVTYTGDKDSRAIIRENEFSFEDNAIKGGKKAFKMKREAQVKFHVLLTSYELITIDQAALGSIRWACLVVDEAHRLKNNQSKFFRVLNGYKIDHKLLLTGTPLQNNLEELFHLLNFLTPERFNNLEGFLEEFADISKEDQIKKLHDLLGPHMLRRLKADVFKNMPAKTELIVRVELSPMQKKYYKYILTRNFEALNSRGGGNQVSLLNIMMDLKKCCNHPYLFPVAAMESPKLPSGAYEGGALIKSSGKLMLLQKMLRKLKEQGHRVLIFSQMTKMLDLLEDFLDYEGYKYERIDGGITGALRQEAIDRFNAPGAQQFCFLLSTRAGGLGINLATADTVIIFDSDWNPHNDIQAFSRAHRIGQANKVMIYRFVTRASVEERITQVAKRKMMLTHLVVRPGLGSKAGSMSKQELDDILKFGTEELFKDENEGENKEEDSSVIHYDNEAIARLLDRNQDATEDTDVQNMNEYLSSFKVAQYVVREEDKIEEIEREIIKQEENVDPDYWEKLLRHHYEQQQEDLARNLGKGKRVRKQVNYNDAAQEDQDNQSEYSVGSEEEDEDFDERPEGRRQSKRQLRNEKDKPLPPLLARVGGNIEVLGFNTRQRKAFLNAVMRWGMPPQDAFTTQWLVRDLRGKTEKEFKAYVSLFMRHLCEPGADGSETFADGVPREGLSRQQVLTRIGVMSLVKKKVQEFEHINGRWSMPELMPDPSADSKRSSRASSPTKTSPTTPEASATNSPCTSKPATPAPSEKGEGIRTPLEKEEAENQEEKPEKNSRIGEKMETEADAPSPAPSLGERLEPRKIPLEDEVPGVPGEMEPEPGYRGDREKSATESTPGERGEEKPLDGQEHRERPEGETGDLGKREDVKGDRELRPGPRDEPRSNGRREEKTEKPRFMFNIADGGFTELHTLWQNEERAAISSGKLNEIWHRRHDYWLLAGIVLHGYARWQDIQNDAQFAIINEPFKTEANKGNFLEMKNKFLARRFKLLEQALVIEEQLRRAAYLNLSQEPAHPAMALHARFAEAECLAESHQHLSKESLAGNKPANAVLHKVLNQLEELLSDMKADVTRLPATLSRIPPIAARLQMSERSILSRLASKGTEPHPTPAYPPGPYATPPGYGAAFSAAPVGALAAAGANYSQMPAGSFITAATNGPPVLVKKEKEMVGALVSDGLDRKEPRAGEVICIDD
UniProt Q9UJX2: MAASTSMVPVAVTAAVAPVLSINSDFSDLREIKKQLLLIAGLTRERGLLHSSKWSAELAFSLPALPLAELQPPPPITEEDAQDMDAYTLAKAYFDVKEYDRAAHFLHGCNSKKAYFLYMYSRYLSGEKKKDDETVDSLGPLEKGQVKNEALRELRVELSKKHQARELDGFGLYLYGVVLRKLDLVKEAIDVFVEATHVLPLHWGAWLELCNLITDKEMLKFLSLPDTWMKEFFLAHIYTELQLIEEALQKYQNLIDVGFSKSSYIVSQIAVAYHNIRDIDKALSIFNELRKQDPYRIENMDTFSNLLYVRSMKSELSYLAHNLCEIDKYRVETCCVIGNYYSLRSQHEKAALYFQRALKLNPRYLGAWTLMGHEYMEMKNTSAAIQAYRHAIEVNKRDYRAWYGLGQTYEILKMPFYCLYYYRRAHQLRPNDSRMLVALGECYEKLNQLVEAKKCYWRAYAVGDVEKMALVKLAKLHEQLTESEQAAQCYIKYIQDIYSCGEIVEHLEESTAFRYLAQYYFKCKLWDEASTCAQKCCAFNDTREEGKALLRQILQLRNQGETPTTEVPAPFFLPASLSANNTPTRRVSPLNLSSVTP
UniProt Q9P2B7: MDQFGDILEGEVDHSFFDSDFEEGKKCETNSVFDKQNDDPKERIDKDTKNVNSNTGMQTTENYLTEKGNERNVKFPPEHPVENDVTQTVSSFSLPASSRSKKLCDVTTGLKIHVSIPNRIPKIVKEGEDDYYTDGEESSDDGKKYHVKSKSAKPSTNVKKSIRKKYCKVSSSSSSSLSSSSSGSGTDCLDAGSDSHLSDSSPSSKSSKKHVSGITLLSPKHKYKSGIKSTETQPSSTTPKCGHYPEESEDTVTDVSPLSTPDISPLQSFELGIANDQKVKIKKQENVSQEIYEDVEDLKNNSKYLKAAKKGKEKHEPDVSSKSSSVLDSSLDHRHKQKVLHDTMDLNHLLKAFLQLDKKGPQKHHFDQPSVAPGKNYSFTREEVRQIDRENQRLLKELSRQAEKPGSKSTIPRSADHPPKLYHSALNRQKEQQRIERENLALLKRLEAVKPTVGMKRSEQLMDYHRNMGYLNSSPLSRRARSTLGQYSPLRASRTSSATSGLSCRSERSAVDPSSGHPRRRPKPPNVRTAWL
UniProt Q96JM3: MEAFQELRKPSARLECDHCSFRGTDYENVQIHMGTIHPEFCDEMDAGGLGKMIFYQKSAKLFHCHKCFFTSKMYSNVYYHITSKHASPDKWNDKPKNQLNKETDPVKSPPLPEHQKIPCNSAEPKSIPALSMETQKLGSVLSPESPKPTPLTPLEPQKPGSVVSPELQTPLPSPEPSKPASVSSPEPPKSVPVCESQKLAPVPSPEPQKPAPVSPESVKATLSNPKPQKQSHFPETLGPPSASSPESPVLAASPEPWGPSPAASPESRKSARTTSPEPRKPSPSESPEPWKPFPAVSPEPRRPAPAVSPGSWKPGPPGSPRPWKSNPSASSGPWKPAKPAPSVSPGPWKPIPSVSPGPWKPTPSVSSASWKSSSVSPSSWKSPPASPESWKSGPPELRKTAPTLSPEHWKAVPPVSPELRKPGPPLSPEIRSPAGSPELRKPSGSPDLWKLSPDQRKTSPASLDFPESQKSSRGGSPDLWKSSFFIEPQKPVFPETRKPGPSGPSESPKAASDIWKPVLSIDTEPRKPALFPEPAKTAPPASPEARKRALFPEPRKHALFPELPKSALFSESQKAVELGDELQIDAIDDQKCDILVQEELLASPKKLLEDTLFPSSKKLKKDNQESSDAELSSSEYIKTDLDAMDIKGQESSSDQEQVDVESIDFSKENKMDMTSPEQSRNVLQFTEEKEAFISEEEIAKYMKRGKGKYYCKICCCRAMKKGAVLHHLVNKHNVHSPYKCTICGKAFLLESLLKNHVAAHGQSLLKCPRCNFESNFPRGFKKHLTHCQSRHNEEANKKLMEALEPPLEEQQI
UniProt Q69YH5: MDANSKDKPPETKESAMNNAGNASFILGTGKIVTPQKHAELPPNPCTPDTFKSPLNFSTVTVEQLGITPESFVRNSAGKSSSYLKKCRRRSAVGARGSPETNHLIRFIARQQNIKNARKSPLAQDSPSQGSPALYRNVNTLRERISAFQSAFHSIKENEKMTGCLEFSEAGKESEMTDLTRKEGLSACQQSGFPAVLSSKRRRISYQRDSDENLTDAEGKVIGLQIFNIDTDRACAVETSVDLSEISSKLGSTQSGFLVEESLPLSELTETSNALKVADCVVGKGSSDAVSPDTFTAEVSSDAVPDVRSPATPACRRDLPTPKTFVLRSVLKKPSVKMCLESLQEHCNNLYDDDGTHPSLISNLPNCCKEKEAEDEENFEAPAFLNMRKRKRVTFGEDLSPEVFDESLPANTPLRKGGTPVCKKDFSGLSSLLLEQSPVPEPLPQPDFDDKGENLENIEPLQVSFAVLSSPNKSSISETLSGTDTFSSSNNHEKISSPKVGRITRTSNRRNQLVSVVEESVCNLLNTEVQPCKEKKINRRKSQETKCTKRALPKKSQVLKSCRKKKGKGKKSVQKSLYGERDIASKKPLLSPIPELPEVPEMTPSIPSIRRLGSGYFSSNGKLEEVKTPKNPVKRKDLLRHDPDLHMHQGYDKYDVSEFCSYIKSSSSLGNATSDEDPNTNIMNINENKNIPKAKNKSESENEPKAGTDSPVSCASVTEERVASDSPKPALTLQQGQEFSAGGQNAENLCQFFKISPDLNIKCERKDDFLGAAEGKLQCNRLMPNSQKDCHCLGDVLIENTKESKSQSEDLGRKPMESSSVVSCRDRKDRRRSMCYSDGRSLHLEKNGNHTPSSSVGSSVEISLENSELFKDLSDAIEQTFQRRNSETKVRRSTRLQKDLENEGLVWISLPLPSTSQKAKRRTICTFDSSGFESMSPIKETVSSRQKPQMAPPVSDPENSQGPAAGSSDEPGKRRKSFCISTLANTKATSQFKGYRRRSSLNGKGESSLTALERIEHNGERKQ
UniProt Q5T0F9: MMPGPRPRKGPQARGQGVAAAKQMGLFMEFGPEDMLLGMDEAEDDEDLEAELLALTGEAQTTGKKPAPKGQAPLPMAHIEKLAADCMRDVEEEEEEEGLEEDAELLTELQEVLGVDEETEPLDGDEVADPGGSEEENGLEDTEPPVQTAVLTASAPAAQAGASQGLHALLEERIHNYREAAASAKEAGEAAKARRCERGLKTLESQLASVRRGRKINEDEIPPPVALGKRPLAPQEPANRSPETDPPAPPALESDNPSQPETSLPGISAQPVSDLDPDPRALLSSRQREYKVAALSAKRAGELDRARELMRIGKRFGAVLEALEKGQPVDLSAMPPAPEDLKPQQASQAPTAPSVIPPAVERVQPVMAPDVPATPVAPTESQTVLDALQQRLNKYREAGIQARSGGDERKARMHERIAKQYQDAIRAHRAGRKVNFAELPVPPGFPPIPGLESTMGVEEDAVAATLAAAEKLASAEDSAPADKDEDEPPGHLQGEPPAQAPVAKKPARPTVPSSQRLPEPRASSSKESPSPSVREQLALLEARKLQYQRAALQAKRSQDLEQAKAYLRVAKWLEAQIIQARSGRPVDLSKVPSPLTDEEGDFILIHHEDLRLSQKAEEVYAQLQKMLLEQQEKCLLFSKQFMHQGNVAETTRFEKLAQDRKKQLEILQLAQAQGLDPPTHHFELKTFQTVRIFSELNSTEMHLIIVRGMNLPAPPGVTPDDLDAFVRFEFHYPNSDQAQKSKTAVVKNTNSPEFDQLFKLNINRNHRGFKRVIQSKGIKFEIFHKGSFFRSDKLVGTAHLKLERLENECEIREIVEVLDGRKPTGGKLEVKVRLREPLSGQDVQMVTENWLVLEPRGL

Compound: ClCC(=O)N[C@H]1CCCc2ccccc12
Assay: log2 mean competition ratio of IA-DTB cysteine labelling (DMSO/compound) (log2 ratio); higher = stronger cysteine engagement by compound
Settings: treatment time: 4 h, cell line lysate: HEK293T
Description: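 IA-DTB competitive cysteine chemoproteomics in HEK293T RIPA lysate. Lysates were treated with compound 29 or 30 at 50 or 200 µM for 4 h, then IA-DTB (500 µM, 1 h), trypsin-digested, NeutrAvidin-enriched and analysed by diaPASEF. Competition ratio = intensity DMSO / intensity compound (n=4 treated, n=64 DMSO); binding: mean log2 CR ≥ 1 and p ≤ 0.05 plus QC filters. Target is the cysteine site.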

| Target | log2 mean competition ratio (50 µM) | log2 mean competition ratio (200 µM) |
| --- | --- | --- |
| CCT3 C455 | -0.0804 | -0.148 |
| CDK5RAP1 C538 (UniProt Q96SZ6) | 0.0298 | 0.0986 |
| CCT4 C120 (UniProt P50991) | -0.173 | -0.149 |
| CDK5RAP3 C165 (UniProt Q96JB5) | -0.0225 | -0.0974 |
| CDK17 C304 (UniProt Q00537) | 0.0156 | 0.0487 |
| CEP135 C473 (UniProt Q66GS9) | 0.2 | 0.0648 |
| CHD3 C1838 (UniProt Q12873) | -0.348 | -0.0354 |
| CDC23 C489 (UniProt Q9UJX2) | 0.039 | -0.203 |
| CDC27 C137 | 0.0215 | -0.093 |
| CDKAL1 C556 (UniProt Q5VV42) | 0.554 | 0.346 |
| CFAP97 C504 (UniProt Q9P2B7) | -0.0534 | 0.314 |
| CDC16 C133 (UniProt Q13042) | 0.102 | -0.158 |
| CHAMP1 C119 (UniProt Q96JM3) | 0.0984 | 0.174 |
| CDC37 C336 | -0.168 | 0.235 |
| CEP350 C1432 (UniProt Q5VT06) | -0.118 | 0.381 |
| CDKN2AIP C503 (UniProt Q9NXV6) | -0.315 | 0.211 |
| CENPF C1328 (UniProt P49454) | 0.425 | 0.232 |
| CCT5 C493 (UniProt P48643) | 0.279 | -0.104 |
| CDCA2 C280 (UniProt Q69YH5) | 0.0484 | 0.172 |
| CC2D1B C809 (UniProt Q5T0F9) | -0.246 | -0.0695 |
| CENPJ C294 (UniProt Q9HC77) | -0.363 | 0.276 |
| CEP170 C212 (UniProt Q5SW79) | 0.0171 | -0.068 |

A different layout for some results above:
Target | log2 mean competition ratio (50 µM) | log2 mean competition ratio (200 µM)
CENPJ C294 (UniProt Q9HC77) | -0.363 | 0.276
CEP170 C212 (UniProt Q5SW79) | 0.0171 | -0.068
